In patent US7094752B2 (Chiron Corporation, priority 1997, dated 2006):
Some of these results come from one statement about several compounds together. For part of these data: For at least one compound, name, drawing or mass did not settle the structure. Ends that are not written are not given here.

By UniProt entry, the sequences of proteins in these tests, tags left out. Residues count along the entry.
UniProt Q03405, 23-305: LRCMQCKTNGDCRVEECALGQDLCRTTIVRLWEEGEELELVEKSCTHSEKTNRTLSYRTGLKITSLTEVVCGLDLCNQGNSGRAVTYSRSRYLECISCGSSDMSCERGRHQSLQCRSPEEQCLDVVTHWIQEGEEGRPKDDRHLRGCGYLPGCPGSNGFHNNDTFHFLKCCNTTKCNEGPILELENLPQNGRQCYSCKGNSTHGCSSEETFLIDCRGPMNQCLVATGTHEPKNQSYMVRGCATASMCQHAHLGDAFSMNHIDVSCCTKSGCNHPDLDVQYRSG

Experiments:
[1] = molecular target: T1, biotinylated sUPAR (Homo sapiens, UniProt Q03405); assay: Bacteriophage binding to sUPAR (yield); settings: phage-displayed peptide, individually affinity selected on immobilized sUPAR
T1 construct: sUPAR, soluble truncated form of the urokinase receptor; made in house; host or cells: baculovirus-infected Sf9 insect cells

[2] = molecular target: T1, biotinylated sUPAR; settings: phage-displayed; as reported in Goodson et al; cited from earlier work

Substance	yield of bacteriophage on immobilized sUPAR [1] [%]	reduction of bacteriophage yield in the presence of uPA1–48 [2]	yield of bacteriophage on suPAR [2]
AEPVYQYELDSYLRSYY-NH2 [peptide 7]	> 2		
uPA13–32: amino acids 13–32 of human urokinase with Cys19 converted to Ala (CLNGGTAVSNKYFSNIHWCN) [reference compound]		greater than 500 fold	2–5%
H-AEFFKLGPNGYVYLHSA-NH2 [peptide 9]	> 2		
AELDLSTFYDIQYLLRT-NH2 [peptide 18]	> 2		
H-AESTYHHLSLGYMYTLN-NH2 [peptide 25]	> 2		
